Laboratory results from US20200390879A1.
These are yes or no findings as the source states them, for the method shown. For some assays here: A result given as binding can be weak or reduced; the word gives no strength.

B1: hJEV-80 (antibody, V domains shown)
VH: QVQLQESGPGLVKPSETLSLTCTVSGGSISSYYWSWIRQSPGKGLECIGYIFYSGSTNYNPSLKSRVTISVDASKNQFSLKLRSVTAADTAVYYCARVLGRMSFDHWGQGTPVTVSS
VL: SYVLTQPPSVSVAPGQTARITCGGNNIGSKSVHWYQQKSGQAPVLVVYNDRDRPSGIPERFSGSNSGNTASLTISRVEAGDEADYYCQVWDNGSDHYFFGTGTKVTVL
B2: hJEV-69 (antibody, V domains shown)
VH: QVQLQESGPGLVKPSETLSLTCSVSGDSVSSANHYWTWVRQPPGKGLEWIGYMYHSGSTNFHPSLKSRVTISVDKSKNQFSLKLTSVTAADSAVYYCARVDAVMEYYYESGTAPGAFDIWGQGIMVTVSS
VL: DIVMTQSPDSLAVSLGERATINCKSSQSVLYRNNNKNYLAWYQHKPGQSPKLLIYWASTRESGVPDRFSGSGSGTDFTLTISSLQAEDVAVYYCHQYYSTPYTFGQGTKLEIK
B3: hJEV-11 (antibody, V domains shown)
VH: EVQLVESGGGLVQPGGSLRLSCAASGFTFSSYAMSWVRQAPGKGLEWVSVSGSAGATTYYADSVKGRFTISRDNSKNTLYLQMNSLRAEDTAVYYCAKDEWDYDYIWGSYRYWGQGTLVTVSS
VL: DIQMTQSPSSLSASVGDRVTITCRTSQSIGRYLNWYQQKPGKAPKLLIFAASSLQSGVPSRFSGSGSGTDFTLTISSLQLEDFATYYCQQTYITLMYTFGQGTKLEIK
B4: hJEV-75 (antibody, V domains shown)
VH: QLQLQESGPGLVKPSETLSLTCTVSGGSISSTSYYWGWIRQSPGKGLEWIGSIFNNGRTFYNPSLKSRVTISVDTSKNQFSLKLSSVSAADTAIFYCARHLMYSTSSTDAFDIWGHGTMVTVSS
VL: QSALTQPASVSGSPGQSITMSCTGTSSDVGDYNLLSWYQHHPGKAPKLMIYEGSKRPSGVSNRFSGSKSGNTASLTISGLQAEDEADYYCCSYAGSSTWVFGGGTKLTVL

What was measured:
[1] = target: WNV E ectodomain protein (West Nile virus); assay: ELISA cross-reactivity (Table A, cross-reactivity column; head missing)
[2] = target: WNV E ectodomain protein (West Nile virus); assay: ELISA on coated recombinant protein, mAb at 1 µg/ml
[3] = target: WNV E ectodomain protein (West Nile virus); assay: ELISA on coated recombinant protein
[4] = target: ZIKV E ectodomain protein (Zika virus); assay: ELISA on coated recombinant protein

Binder	binding [1]	binding [2]	binding [3]	binding [4]
B1	binds	binds		
B2			no binding (tested: 1 µg/ml)	no binding (tested: 1 µg/ml)
B3	binds	binds		
B4			no binding (tested: 1 µg/ml)	no binding (tested: 1 µg/ml)
